# Test results taken from PMC12275198.
# These are yes or no findings as the source states them, for the method shown. Binding seen in cells or lysates may run through a third protein. Some entries that bind do so weakly or less than the wild type.
# T1: Yaf9, ENL, AF9, Taf14, Sas5 (YEATS) domain-containing 2 (YEATS2), endogenous (human (endogenous in 293T)) (UniProt Q9ULM3)
# T1 sequence: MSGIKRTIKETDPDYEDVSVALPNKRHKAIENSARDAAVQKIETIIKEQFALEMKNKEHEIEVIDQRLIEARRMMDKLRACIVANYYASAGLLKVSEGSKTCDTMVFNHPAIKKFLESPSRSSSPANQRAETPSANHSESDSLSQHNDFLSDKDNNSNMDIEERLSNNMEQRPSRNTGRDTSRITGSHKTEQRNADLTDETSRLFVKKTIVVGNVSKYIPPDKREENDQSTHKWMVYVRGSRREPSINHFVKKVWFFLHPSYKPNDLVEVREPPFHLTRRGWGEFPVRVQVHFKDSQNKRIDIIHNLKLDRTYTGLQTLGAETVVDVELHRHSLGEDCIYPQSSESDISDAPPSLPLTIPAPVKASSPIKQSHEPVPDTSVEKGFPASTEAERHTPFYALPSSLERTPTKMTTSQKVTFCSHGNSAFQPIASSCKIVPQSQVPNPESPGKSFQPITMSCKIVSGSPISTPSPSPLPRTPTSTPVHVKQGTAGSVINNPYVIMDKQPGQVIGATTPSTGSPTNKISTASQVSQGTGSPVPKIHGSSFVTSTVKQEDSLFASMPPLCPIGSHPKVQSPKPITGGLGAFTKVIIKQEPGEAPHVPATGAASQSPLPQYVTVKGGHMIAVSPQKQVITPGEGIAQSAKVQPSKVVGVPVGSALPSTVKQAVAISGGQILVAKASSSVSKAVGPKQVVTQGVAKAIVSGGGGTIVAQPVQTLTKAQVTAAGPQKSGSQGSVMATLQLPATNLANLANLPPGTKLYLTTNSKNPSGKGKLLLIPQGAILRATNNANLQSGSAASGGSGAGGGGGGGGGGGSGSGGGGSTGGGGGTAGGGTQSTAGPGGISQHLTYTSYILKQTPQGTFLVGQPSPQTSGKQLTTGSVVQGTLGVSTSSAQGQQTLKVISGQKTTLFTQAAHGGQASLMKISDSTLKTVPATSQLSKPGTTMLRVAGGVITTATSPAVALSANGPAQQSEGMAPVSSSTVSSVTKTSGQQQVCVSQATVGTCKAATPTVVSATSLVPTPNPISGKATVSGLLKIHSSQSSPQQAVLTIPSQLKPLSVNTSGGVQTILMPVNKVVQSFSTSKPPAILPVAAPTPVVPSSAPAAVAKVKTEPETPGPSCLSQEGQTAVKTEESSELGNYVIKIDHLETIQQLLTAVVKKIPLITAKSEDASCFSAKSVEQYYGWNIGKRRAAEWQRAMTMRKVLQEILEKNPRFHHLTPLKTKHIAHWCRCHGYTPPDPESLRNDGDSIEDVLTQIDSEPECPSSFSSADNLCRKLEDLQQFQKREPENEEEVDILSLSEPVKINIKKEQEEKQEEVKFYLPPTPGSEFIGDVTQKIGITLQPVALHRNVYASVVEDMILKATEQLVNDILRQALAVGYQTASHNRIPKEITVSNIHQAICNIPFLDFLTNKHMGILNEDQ
# Target: T1, Yaf9, ENL, AF9, Taf14, Sas5 (YEATS) domain-containing 2 (YEATS2), endogenous (human (endogenous in 293T))
# Assay: co-IP; endogenous proteins in 293T cell extracts; IP with anti-OGT and blot with anti-YEATS2, and the reverse (IP with anti-YEATS2)
binder,measurement,value
"O-GlcNAc transferase (OGT), endogenous (enzyme, UniProt O15294 1-1046) MASSVGNVADSTEPTKRMLSFQGLAELAHREYQAGDFEAAERHCMQLWRQEPDNTGVLLLLSSIHFQCRRLDRSAHFSTLAIKQNPLLAEAYSNLGNVYKERGQLQEAIEHYRHALRLKPDFIDGYINLAAALVAAGDMEGAVQAYVSALQYNPDLYCVRSDLGNLLKALGRLEEAKACYLKAIETQPNFAVAWSNLGCVFNAQGEIWLAIHHFEKAVTLDPNFLDAYINLGNVLKEARIFDRAVAAYLRALSLSPNHAVVHGNLACVYYEQGLIDLAIDTYRRAIELQPHFPDAYCNLANALKEKGSVAEAEDCYNTALRLCPTHADSLNNLANIKREQGNIEEAVRLYRKALEVFPEFAAAHSNLASVLQQQGKLQEALMHYKEAIRISPTFADAYSNMGNTLKEMQDVQGALQCYTRAIQINPAFADAHSNLASIHKDSGNIPEAIASYRTALKLKPDFPDAYCNLAHCLQIVCDWTDYDERMKKLVSIVADQLEKNRLPSVHPHHSMLYPLSHGFRKAIAERHGNLCLDKINVLHKPPYEHPKDLKLSDGRLRVGYVSSDFGNHPTSHLMQSIPGMHNPDKFEVFCYALSPDDGTNFRVKVMAEANHFIDLSQIPCNGKAADRIHQDGIHILVNMNGYTKGARNELFALRPAPIQAMWLGYPGTSGALFMDYIITDQETSPAEVAEQYSEKLAYMPHTFFIGDHANMFPHLKKKAVIDFKSNGHIYDNRIVLNGIDLKAFLDSLPDVKIVKMKCPDGGDNADSSNTALNMPVIPMNTIAEAVIEMINRGQIQITINGFSISNGLATTQINNKAATGEEVPRTIIVTTRSQYGLPEDAIVYCNFNQLYKIDPSTLQMWANILKRVPNSVLWLLRFPAVGEPNIQQYAQNMGLPQNRIIFSPVAPKEEHVRRGQLADVCLDTPLCNGHTTGMDVLWAGTPMVTMPGETLASRVAASQLTCLGCLELIAKNRQEYEDIAVKLGTDLEYLKKVRGKVWKQRISSPLFNTKQYTMELERLYLQMWEHYAAGNKPDHMIKPVEVTESA",binding,binds
